Assay results reported in PubChem BioAssay AID504834 (National Center for Advancing Translational Sciences (NCATS), 2011).
Screen size: about 320,000 compounds; about 22,000 (6.9%) were called active. The inconclusive results got no clear call from the source; some entries with a clear call stand among them for comparison. Calls follow the shape of the dose curve; as a rule, active = well fitted inhibition curve with a large enough effect; inconclusive = small, poorly fitted or top-dose-only effect, or another doubt; inactive = no such curve, though single readings can be large or run the other way. Where the call is inconclusive, the potency comes from a doubtful curve fit.

Assay: Primary qHTS for delayed death inhibitors of the malarial parasite plastid, 96 hour incubation
Details: P. falciparum luciferase reporter growth; series mostly up to 28.7 µM
In short: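 Two-generation exposure (96 h) targets delayed-death phenotype. Reporter parasites carrying integrated firefly luciferase, in red cells at 2% hematocrit and 0.05% parasitemia final, kept at 37 C, 5% CO2; luminescence loss indicates inhibition.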
Potency is read from the fitted curve at half-maximal effect.

Row | SMILES | Potency
1 | CC1=CC(C)(C)N(C(=O)CSc2nnc(-c3ccc(C)cc3)o2)c2ccc(C)cc21 | active: 9.28 µM
2 | Oc1ccc(O)cc1 | inconclusive: 8.49 µM [inhibitor, partial curve, poor fit]
3 | O=C1CC(N2CCOCC2)=NN1c1ccc([N+](=O)[O-])cc1 | inconclusive: 14.7 µM [inhibitor, partial curve, poor fit]
4 | Cc1cc(C(=O)CN2C(=O)CCC2=O)c(C)n1Cc1ccccc1 | inconclusive: 18.5 µM [inhibitor, single point]
5 | COc1ccccc1-c1nnc(SCC(=O)NC2CCS(=O)(=O)C2)n1N (stereo not given) | inactive
6 | Clc1ccc(-c2nnc(-c3ccccc3)c(N3CCSCC3)n2)cc1 | inconclusive: 1.17 µM [inhibitor, partial curve, poor fit]
7 | O=C1c2ccccc2C(=O)c2c([N+](=O)[O-])ccc(O)c21 | inconclusive: 11.7 µM [inhibitor, partial curve]
8 | CCCCn1c(N)c(N(CCOC)C(=O)c2sc3cc(F)ccc3c2Cl)c(=O)[nH]c1=O | inactive
9 | CC(C)C(=O)Nc1ccc(C(=O)NNC(=S)NC(=O)c2cccs2)cc1 | inconclusive: 11.7 µM [inhibitor, partial curve, poor fit]
10 | CC(=O)c1cccc(NS(=O)(=O)c2ccc(N/C=C\C(=O)c3ccc(C)cc3)cc2)c1 | inconclusive: 0.329 µM [inhibitor, full curve]
11 | O=C(NCc1ccc2c(c1)OCO2)Nc1cccc2ccccc12 | inactive
12 | CCC1=Nc2cc(C(=O)NCCN3CCOCC3)ccc2Sc2ccccc21 | inconclusive: 1.04 µM [inhibitor, partial curve, poor fit]
13 | Cc1noc(C)c1CSCC(=O)Nc1nc2c(F)cc(F)cc2s1 | inconclusive: 9.28 µM [inhibitor, partial curve, poor fit]
14 | COc1ccc(NC(=O)[C@H](C)NC(=O)C2CCN(S(=O)(=O)c3ccc(C)cc3)CC2)cc1 | inconclusive: 16.5 µM [inhibitor, single point]
15 | CCN(Cc1ccccc1)C(=O)Cn1c(=O)n(-c2ccc(OC)cc2OC)c(=O)c2c(C)c(C)sc21 | inconclusive: 10.4 µM [inhibitor, single point]
16 | CCCNC(=O)c1ccc(OC)cc1OC | inactive
17 | COc1ccccc1C(=O)Nc1cccc2c1CCCC2 | inconclusive: 18.5 µM [inhibitor, single point]
18 | O=C(CCC(=O)OCC(=O)c1cccc([N+](=O)[O-])c1)Nc1cccc(Cl)c1Cl | inactive
19 | O=C(Nc1nc2nccc(-c3ccccc3)n2n1)C(Cl)(Cl)Cl | inactive
20 | COc1ccccc1NC(=O)C(NC(=O)OC(C)(C)C)C(C)OCc1ccccc1 (stereo not given) | inconclusive: 10.4 µM [inhibitor, partial curve, poor fit]
21 | COC(=O)C(F)(F)Sc1c(C)[nH]c2ccccc12 | inconclusive: 18.5 µM [inhibitor, single point]
22 | CN(Cc1ccc(OC(F)F)cc1)C(=O)c1ccc2nccnc2c1 | inconclusive: 16.5 µM [inhibitor, single point]
23 | Cc1ccc(C(=O)CSc2nc(C)cc(SCc3nnc(-c4ccccc4)o3)n2)cc1 | inconclusive: 18.5 µM [inhibitor, single point]

Row | SMILES | Potency
24 | CCCn1c(SCC(=O)NC(C)(C)C)nnc1-c1ccco1 | inactive
25 | CCN(CC(=O)Nc1ccc(NC(C)=O)cc1)C(=O)c1cc(S(=O)(=O)N2CCCCCC2)ccc1OC | inconclusive: 4.15 µM [inhibitor, partial curve]
26 | Cc1cccc(CSc2nn3c(=O)c(C)nnc3s2)c1 | inconclusive: 2.33 µM [inhibitor, partial curve, poor fit]
27 | COc1ccc(Br)cc1CNC(=O)C1CCCN(S(=O)(=O)N2CC(C)CC(C)C2)C1 (stereo not given) | inconclusive: 10.4 µM [inhibitor, single point]
28 | CCC(Oc1ccccc1)C(=O)Nc1ccccc1N1CCCCC1 (stereo not given) | inactive
29 | COc1ccc(C(=O)C=CNNC(=O)c2ccc(Cl)cc2)cc1 | inactive
30 | CCNC(=O)CCCOc1ccc(Cl)cc1Cl | inconclusive: 18.5 µM [inhibitor, single point]
31 | Cc1c(Cl)cccc1NS(=O)(=O)c1ccc(-c2ccc(=O)[nH]n2)o1 | inactive
32 | Cc1ccc2oc(C(=O)Nc3ccc(S(=O)(=O)Nc4onc(C)c4C)cc3)cc(=O)c2c1 | inconclusive: 0.657 µM [inhibitor, full curve, poor fit]
33 | O=C(CCC(=O)N1CCSc2ccccc21)NCc1ccc(Cl)cc1 | inactive
34 | Cc1ccc(Cl)cc1NC(=O)CSc1nncn1-c1ccccn1 | inconclusive: 5.86 µM [inhibitor, partial curve]
35 | COCCOC(=O)C1=C(C)NC(=O)NC1c1ccc(OC(=O)c2ccco2)c(OC)c1 (stereo not given) | inactive
36 | Cc1cc(NC(=O)C(C)SCC(=O)Nc2cc(C(F)(F)F)ccc2N2CCCCC2)no1 (stereo not given) | active: 11.7 µM
37 | CCN(C(=O)c1cccc(NC(=O)c2ccccc2)c1)C1CCCCC1 | inconclusive: 14.7 µM [inhibitor, single point]
38 | CN(C)CCN1C(=O)c2oc3ccccc3c(=O)c2C1c1cccc(Br)c1 (stereo not given) | inconclusive: 0.0415 µM [inhibitor, full curve, poor fit]
39 | Cc1c(Cl)cccc1Nc1nc(N)nc(CSc2nc3ccccc3s2)n1 | inconclusive: 2.94 µM [inhibitor, single point]
40 | CCOC(=O)C1(Cc2cccc(F)c2)CCN(C(=O)c2ccoc2C)CC1 | inactive
41 | CC(NC(=O)Cc1ccccc1)C(=O)O (stereo not given) | inconclusive: 16.5 µM [inhibitor, single point]
42 | Cc1cc(Cl)ccc1OC(C)C(=O)Nc1cnn(CCCC(=O)O)c1 (stereo not given) | inactive
43 | N#Cc1ccc2nc3c(nc2c1)CCCC3 | inconclusive: 0.928 µM [inhibitor, partial curve, poor fit]
44 | O=C(c1cc2ccccc2o1)N1CCOCC1 | inconclusive: 0.0083 µM [inhibitor, full curve, poor fit]
45 | O=C1C=C(NNC(=O)c2cccnc2)CC(c2ccco2)C1 (stereo not given) | inconclusive: 10.4 µM [inhibitor, partial curve, poor fit]

Laid out differently: 3 of the compounds above.
Row,SMILES,Potency
14,COc1ccc(NC(=O)[C@H](C)NC(=O)C2CCN(S(=O)(=O)c3ccc(C)cc3)CC2)cc1,"inconclusive: 16.5 µM [inhibitor, single point]"
15,CCN(Cc1ccccc1)C(=O)Cn1c(=O)n(-c2ccc(OC)cc2OC)c(=O)c2c(C)c(C)sc21,"inconclusive: 10.4 µM [inhibitor, single point]"
16,CCCNC(=O)c1ccc(OC)cc1OC,inactive
